This note sets out measurements from publication PMC10773939.

Sequences of proteins named here, by UniProt entry; tags and fusion partners are left off.
UniProt P08100: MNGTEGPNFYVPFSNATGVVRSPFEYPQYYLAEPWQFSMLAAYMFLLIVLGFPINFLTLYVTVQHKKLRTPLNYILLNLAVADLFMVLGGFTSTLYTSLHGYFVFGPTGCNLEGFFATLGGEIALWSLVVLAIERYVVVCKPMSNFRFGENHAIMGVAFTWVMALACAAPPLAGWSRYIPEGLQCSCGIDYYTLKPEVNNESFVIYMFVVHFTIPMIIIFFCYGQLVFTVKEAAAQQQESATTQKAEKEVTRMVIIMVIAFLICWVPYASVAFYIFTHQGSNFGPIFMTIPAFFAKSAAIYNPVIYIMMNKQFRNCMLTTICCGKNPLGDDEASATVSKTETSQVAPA
UniProt P15409: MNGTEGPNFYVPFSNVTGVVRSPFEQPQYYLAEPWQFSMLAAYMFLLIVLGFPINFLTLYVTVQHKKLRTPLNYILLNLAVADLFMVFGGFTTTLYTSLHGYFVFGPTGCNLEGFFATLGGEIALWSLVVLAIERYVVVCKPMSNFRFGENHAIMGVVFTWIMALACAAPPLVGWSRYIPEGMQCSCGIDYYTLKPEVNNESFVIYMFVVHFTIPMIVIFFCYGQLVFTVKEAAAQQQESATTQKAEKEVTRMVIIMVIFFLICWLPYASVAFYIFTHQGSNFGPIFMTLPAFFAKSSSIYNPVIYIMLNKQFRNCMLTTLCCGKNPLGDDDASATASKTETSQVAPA
UniProt P60879: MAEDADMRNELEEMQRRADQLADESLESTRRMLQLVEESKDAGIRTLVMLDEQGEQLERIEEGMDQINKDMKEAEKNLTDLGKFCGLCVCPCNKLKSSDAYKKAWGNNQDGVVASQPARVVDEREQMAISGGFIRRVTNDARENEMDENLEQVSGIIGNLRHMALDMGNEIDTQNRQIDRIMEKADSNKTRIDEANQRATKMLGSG

For assay [1], the target named is human rhodopsin-GFP-1D4 fusion (Rho-GFP-1D4) from Rho-GFP-1D4/+ knock-in mouse retina (human) (UniProt P08100). Briefly: co-IP; GFP-Trap beads added to IS-enriched retinal lysates (Rho-GFP/+ or Rho-GFP-1D4/+ mice; T-PER lysis buffer), overnight at 4°C, 4 washes in PBS-T, western blot of bound fraction. (In general: In western blotting, separated proteins are transferred to a membrane and probed.)

The target in assay [2] is human rhodopsin-GFP fusion (Rho-GFP) from Rho-GFP/+ knock-in mouse retina (human) (UniProt P08100). The description is as above.
In assay [3] the target is endogenous mouse rhodopsin (mouse (endogenous in retina)) (UniProt P15409). Briefly: co-IP; anti-1D4 IgG-conjugated beads added to IS-enriched retinal lysates (Rho-GFP/+ or WT mice; T-PER lysis buffer), overnight at 4°C, 4 washes in PBS-T, western blot of bound fraction.

No constants are given. Whether binding was seen depends on the method and setting. In cells and extracts the contact can be indirect. Some results given as binding are weak or reduced against the parent protein; the word gives no strength.

Turning to SNAP25 (from UniProt P60879 1-206), the binding result in assay [1] and in assay [2] was “binds” each time.

Regarding “human rhodopsin-GFP fusion (Rho-GFP) from Rho-GFP/+ knock-in mouse retina (from UniProt P08100 1-348) (receptor)”, the binding result in assay [3] is on record as “binds”.

B1: syntaxin 3 (protein, UniProt Q64704 1-289)
chain: MKDRLEQLKAKQLTQDDDTDEVEIAIDNTAFMDEFFSEIEETRLNIDKISEHVEEAKKLYSIILSAPIPEPKTKDDLEQLTTEIKKRANNVRNKLKSMEKHIEEDEVRSSADLRIRKSQHSVLSRKFVEVMTKYNEAQVDFRERSKGRIQRQLEITGKKTTDEELEEMLESGNPAIFTSGIIDSQISKQALSEIEGRHKDIVRLESSIKELHDMFMDIAMLVENQGEMLDNIELNVMHTVDHVEKARDETKRAMKYQGQARKKLIIIIVVVVVLLGILALIIGLSVGLK
Regarding B1, the binding result in assay [3], in assay [1] and in assay [2] was “binds” throughout.
